We go through five molecules from paper doi:10.1101/2021.07.13.452210.

The target of one assay is T1, MNR-GFP (UniProt Q2KHM9).
T1 sequence: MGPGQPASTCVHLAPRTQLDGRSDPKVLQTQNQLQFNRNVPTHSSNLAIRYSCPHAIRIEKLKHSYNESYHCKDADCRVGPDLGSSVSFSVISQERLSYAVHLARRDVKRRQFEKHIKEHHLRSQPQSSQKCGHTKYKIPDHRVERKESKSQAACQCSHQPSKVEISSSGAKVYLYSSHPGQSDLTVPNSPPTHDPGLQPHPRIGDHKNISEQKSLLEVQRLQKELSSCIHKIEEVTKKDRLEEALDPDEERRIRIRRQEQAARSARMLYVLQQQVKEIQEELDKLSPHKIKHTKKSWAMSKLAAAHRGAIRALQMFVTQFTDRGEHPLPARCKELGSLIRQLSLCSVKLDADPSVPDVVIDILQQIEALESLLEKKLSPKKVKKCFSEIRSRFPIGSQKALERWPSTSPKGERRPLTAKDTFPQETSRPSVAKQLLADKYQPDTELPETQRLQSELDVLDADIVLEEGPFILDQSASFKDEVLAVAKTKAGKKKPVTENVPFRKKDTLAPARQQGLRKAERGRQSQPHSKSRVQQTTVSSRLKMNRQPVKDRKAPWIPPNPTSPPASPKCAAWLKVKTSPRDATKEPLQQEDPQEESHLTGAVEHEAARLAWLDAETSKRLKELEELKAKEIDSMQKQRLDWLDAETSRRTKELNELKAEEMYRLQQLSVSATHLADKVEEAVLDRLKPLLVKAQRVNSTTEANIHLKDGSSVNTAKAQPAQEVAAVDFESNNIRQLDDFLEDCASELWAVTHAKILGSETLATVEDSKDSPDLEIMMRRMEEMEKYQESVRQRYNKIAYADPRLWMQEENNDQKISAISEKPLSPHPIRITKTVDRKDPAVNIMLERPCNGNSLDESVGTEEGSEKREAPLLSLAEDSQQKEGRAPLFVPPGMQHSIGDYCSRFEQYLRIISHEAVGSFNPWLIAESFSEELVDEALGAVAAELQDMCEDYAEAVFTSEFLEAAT
The experiment in a line: microtubule recruitment.

The target of assay [1] is T2, GFP-tagged mouse FOPNL (mouse) (UniProt Q9CZS3).
T2 sequence: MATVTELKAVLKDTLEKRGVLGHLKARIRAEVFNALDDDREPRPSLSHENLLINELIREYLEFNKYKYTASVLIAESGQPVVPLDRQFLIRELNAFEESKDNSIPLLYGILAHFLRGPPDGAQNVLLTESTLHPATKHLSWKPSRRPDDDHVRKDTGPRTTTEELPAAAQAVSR
The assay can be described thus: co-IP.

No constants are given. Whether binding was seen depends on the method and setting. For some assays here: In cells and extracts the contact can be indirect. Some results given as binding are weak or reduced against the parent protein; the word gives no strength. Sequences can lack the tags named with a protein.

B1: OFD1-mCherry (protein, UniProt O75665 1-1012)
chain: MMAQSNMFTVADVLSQDELRKKLYQTFKDRGILDTLKTQLRNQLIHELMHPVLSGELQPRSISVEGSSLLIGASNSLVADHLQRCGYEYSLSVFFPESGLAKEKVFTMQDLLQLIKINPTSSLYKSLVSGSDKENQKGFLMHFLKELAEYHQAKESCNMETQTSSTFNRDSLAEKLQLIDDQFADAYPQRIKFESLEIKLNEYKREIEEQLRAEMCQKLKFFKDTEIAKIKMEAKKKYEKELTMFQNDFEKACQAKSEALVLREKSTLERIHKHQEIETKEIYAQRQLLLKDMDLLRGREAELKQRVEAFELNQKLQEEKHKSITEALRRQEQNIKSFEETYDRKLKNELLKYQLELKDDYIIRTNRLIEDERKNKEKAVHLQEELIAINSKKEELNQSVNRVKELELELESVKAQSLAITKQNHMLNEKVKEMSDYSLLKEEKLELLAQNKLLKQQLEESRNENLRLLNRLAQPAPELAVFQKELRKAEKAIVVEHEEFESCRQALHKQLQDEIEHSAQLKAQILGYKASVKSLTTQVADLKLQLKQTQTALENEVYCNPKQSVIDRSVNGLINGNVVPCNGEISGDFLNNPFKQENVLARMVASRITNYPTAWVEGSSPDSDLEFVANTKARVKELQQEAERLEKAFRSYHRRVIKNSAKSPLAAKSPPSLHLLEAFKNITSSSPERHIFGEDRVVSEQPQVGTLEERNDVVEALTGSAASRLRGGTSSRRLSSTPLPKAKRSLESEMYLEGLGRSHIASPSPCPDRMPLPSPTESRHSLSIPPVSSPPEQKVGLYRRQTELQDKSEFSDVDKLAFKDNEEFESSFESAGNMPRQLEMGGLSPAGDMSHVDAAAAAVPLSYQHPSVDQKQIEEQKEEEKIREQQVKERRQREERRQSNLQEVLERERRELEKLYQERKMIEESLKIKIKKELEMENELEMSNQEIKDKSAHSENPLEKYMKIIQQEQDQESADKSSKKMVQEGSLVDTLQSSDKVESLTGFSHEELDDSW
For B1, the binding result with MNR-GFP is “binds”.

B2: endogenous OFD1 (protein, UniProt O75665 1-1012)
chain: MMAQSNMFTVADVLSQDELRKKLYQTFKDRGILDTLKTQLRNQLIHELMHPVLSGELQPRSISVEGSSLLIGASNSLVADHLQRCGYEYSLSVFFPESGLAKEKVFTMQDLLQLIKINPTSSLYKSLVSGSDKENQKGFLMHFLKELAEYHQAKESCNMETQTSSTFNRDSLAEKLQLIDDQFADAYPQRIKFESLEIKLNEYKREIEEQLRAEMCQKLKFFKDTEIAKIKMEAKKKYEKELTMFQNDFEKACQAKSEALVLREKSTLERIHKHQEIETKEIYAQRQLLLKDMDLLRGREAELKQRVEAFELNQKLQEEKHKSITEALRRQEQNIKSFEETYDRKLKNELLKYQLELKDDYIIRTNRLIEDERKNKEKAVHLQEELIAINSKKEELNQSVNRVKELELELESVKAQSLAITKQNHMLNEKVKEMSDYSLLKEEKLELLAQNKLLKQQLEESRNENLRLLNRLAQPAPELAVFQKELRKAEKAIVVEHEEFESCRQALHKQLQDEIEHSAQLKAQILGYKASVKSLTTQVADLKLQLKQTQTALENEVYCNPKQSVIDRSVNGLINGNVVPCNGEISGDFLNNPFKQENVLARMVASRITNYPTAWVEGSSPDSDLEFVANTKARVKELQQEAERLEKAFRSYHRRVIKNSAKSPLAAKSPPSLHLLEAFKNITSSSPERHIFGEDRVVSEQPQVGTLEERNDVVEALTGSAASRLRGGTSSRRLSSTPLPKAKRSLESEMYLEGLGRSHIASPSPCPDRMPLPSPTESRHSLSIPPVSSPPEQKVGLYRRQTELQDKSEFSDVDKLAFKDNEEFESSFESAGNMPRQLEMGGLSPAGDMSHVDAAAAAVPLSYQHPSVDQKQIEEQKEEEKIREQQVKERRQREERRQSNLQEVLERERRELEKLYQERKMIEESLKIKIKKELEMENELEMSNQEIKDKSAHSENPLEKYMKIIQQEQDQESADKSSKKMVQEGSLVDTLQSSDKVESLTGFSHEELDDSW
With B2, the binding result in assay [1] was “binds”.

B3: myc-FOPNL (protein, UniProt Q96NB1 1-174)
chain: MATVAELKAVLKDTLEKKGVLGHLKARIRAEVFNALDDDREPRPSLSHENLLINELIREYLEFNKYKYTASVLIAESGQPVVPLDRQFLIHELNAFEESKDNTIPLLYGILAHFLRGTKDGIQNAFLKGPSLQPSDPSLGRQPSRRKPMDDHLRKEEQKSTNIEDLHVSQAVNR
In the case of B3, the binding result with MNR-GFP was “binds”.

B4: overexpressed CEP90 (protein, UniProt Q8WXW3 1-757)
chain: MSRKISKESKKVNISSSLESEDISLETTVPTDDISSSEEREGKVRITRQLIERKELLHNIQLLKIELSQKTMMIDNLKVDYLTKIEELEEKLNDALHQKQLLTLRLDNQLAFQQKDASKYQELMKQEMETILLRQKQLEETNLQLREKAGDVRRNLRDFELTEEQYIKLKAFPEDQLSIPEYVSVRFYELVNPLRKEICELQVKKNILAEELSTNKNQLKQLTETYEEDRKNYSEVQIRCQRLALELADTKQLIQQGDYRQENYDKVKSERDALEQEVIELRRKHEILEASHMIQTKERSELSKEVVTLEQTVTLLQKDKEYLNRQNMELSVRCAHEEDRLERLQAQLEESKKAREEMYEKYVASRDHYKTEYENKLHDELEQIRLKTNQEIDQLRNASREMYERENRNLREARDNAVAEKERAVMAEKDALEKHDQLLDRYRELQLSTESKVTEFLHQSKLKSFESERVQLLQEETARNLTQCQLECEKYQKKLEVLTKEFYSLQASSEKRITELQAQNSEHQARLDIYEKLEKELDEIIMQTAEIENEDEAERVLFSYGYGANVPTTAKRRLKQSVHLARRVLQLEKQNSLILKDLEHRKDQVTQLSQELDRANSLLNQTQQPYRYLIESVRQRDSKIDSLTESIAQLEKDVSNLNKEKSALLQTKNQMALDLEQLLNHREELAAMKQILVKMHSKHSENSLLLTKTEPKHVTENQKSKTLNVPKEHEDNIFTPKPTLFTKKEAPEWSKKQKMKT
On to B4, for which the binding result with MNR-GFP is recorded as “binds”.

B5: endogenous CEP90/PIBF1 (protein, UniProt Q8WXW3 1-757)
chain: MSRKISKESKKVNISSSLESEDISLETTVPTDDISSSEEREGKVRITRQLIERKELLHNIQLLKIELSQKTMMIDNLKVDYLTKIEELEEKLNDALHQKQLLTLRLDNQLAFQQKDASKYQELMKQEMETILLRQKQLEETNLQLREKAGDVRRNLRDFELTEEQYIKLKAFPEDQLSIPEYVSVRFYELVNPLRKEICELQVKKNILAEELSTNKNQLKQLTETYEEDRKNYSEVQIRCQRLALELADTKQLIQQGDYRQENYDKVKSERDALEQEVIELRRKHEILEASHMIQTKERSELSKEVVTLEQTVTLLQKDKEYLNRQNMELSVRCAHEEDRLERLQAQLEESKKAREEMYEKYVASRDHYKTEYENKLHDELEQIRLKTNQEIDQLRNASREMYERENRNLREARDNAVAEKERAVMAEKDALEKHDQLLDRYRELQLSTESKVTEFLHQSKLKSFESERVQLLQEETARNLTQCQLECEKYQKKLEVLTKEFYSLQASSEKRITELQAQNSEHQARLDIYEKLEKELDEIIMQTAEIENEDEAERVLFSYGYGANVPTTAKRRLKQSVHLARRVLQLEKQNSLILKDLEHRKDQVTQLSQELDRANSLLNQTQQPYRYLIESVRQRDSKIDSLTESIAQLEKDVSNLNKEKSALLQTKNQMALDLEQLLNHREELAAMKQILVKMHSKHSENSLLLTKTEPKHVTENQKSKTLNVPKEHEDNIFTPKPTLFTKKEAPEWSKKQKMKT
For the molecule B5, the binding result in assay [1] is reported as “binds”.
